Values of other authors in article PMC7693160 (Pharmaceutics, 2020).

Tested on: Caco-2 cells
Settings: calibrator values; cited from earlier work

## CC(C)NCC(O)COc1ccc(CC(N)=O)cc1 (stereo not shown) [Atenolol]
  Papp, Caco-2, ref: 1.57 ×10⁻⁶ cm/s
